Experimental data published in PubChem BioAssay AID743255 (National Center for Advancing Translational Sciences (NCATS), 2014).
The campaign covered roughly 390,000 compounds. About 910 (0.23%) were called active. The shares of active, inactive and inconclusive entries below differ from those in the screen. The call rests on the fitted dose curve; in most records, active means well fitted inhibition curve with a large enough effect; inconclusive means small, poorly fitted or top-dose-only effect; inactive means no such curve, though single readings can be large or run the other way. A potency beside an inconclusive call is a rough fit, not a confirmed value.
Further: nearly all actives have a fitted effect of over 60% in size.
On the % scale 0 is the no-effect control and ±100 the full control effect; potency means the concentration at half of the fitted maximal effect.

Sequences of proteins named here, by UniProt entry; tags and fusion partners are left off. A change or cut given only in a name is not applied to a line headed by its entry.
UniProt O94782: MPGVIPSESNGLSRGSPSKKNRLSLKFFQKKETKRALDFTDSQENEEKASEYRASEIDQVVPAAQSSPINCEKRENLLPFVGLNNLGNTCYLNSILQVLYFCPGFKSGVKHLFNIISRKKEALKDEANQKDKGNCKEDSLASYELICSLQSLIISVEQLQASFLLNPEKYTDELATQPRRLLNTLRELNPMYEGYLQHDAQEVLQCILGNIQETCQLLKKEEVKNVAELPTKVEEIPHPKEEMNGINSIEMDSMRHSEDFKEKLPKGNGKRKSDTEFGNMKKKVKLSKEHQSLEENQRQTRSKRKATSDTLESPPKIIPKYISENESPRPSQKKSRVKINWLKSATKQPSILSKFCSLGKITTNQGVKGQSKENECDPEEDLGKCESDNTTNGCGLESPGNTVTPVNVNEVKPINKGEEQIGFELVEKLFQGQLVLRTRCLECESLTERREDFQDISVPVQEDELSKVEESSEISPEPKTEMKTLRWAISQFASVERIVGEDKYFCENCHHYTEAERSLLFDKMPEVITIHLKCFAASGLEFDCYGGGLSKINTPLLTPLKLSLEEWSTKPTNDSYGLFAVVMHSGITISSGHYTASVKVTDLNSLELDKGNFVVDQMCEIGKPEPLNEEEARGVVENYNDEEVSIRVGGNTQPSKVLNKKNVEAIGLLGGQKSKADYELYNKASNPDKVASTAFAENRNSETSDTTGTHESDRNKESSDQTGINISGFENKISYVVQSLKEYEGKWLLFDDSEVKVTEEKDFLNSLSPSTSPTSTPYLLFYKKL

These compounds were tested against Ubiquitin carboxyl-terminal hydrolase 1 (Homo sapiens) (UniProt O94782) (assay: Inhibitors of USP1/UAF1: Primary Screen). Details: recombinant USP1/UAF1, Ub-Rhodamine cleavage fluorescence; activity change, negative = inhibition: at 57.1 µM (top of the series).
Method in brief: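 High-throughput fluorogenic screen: 1nM USP1/UAF1 complex, Ub-Rho substrate 150nM final, 50mM HEPES pH 7.8 with 0.5mM EDTA, 0.1 mg/ml BSA, 1mM TCEP and 0.01% Tween-20.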
For `O=S(=O)(c1ccc2nc(N3CCN(c4ccccc4F)CC3)ccc2c1)N1CCCCC1`, the Potency was inconclusive: 7.08 µM [inhibitor, partial curve]. `COc1ccc(N2C(=O)CSC23C(=O)N(Cc2cccc(F)c2)c2ccccc23)cc1Cl` (configuration not stated) was tested, and the Potency was inconclusive: 5.01 µM [inhibitor, full curve]. For `COc1ccccc1CNc1ncnc2c1cnn2-c1ccc(C)cc1`, the Potency was inconclusive: 44.7 µM [inhibitor, partial curve]. For `O=C1NC(=S)/C(=C\c2ccc(-c3ccccc3Cl)o2)S1`, the Potency was “inactive”. `COc1ccc(OC)c(CN2CCN(C(=O)CNC(=O)c3ccc(C(C)(C)C)cc3)CC2)c1` was tested, and the Potency was inconclusive: 89.1 µM [inhibitor, partial curve, poor fit]. `Cc1ccc(CNC(=O)c2sc3nc4n(c(=O)c3c2C)CCCCC4)cc1` was tested, and the Potency was “inactive”. For `Cc1nc2cc(C)c(C)cc2o1`, the Potency was inconclusive: 14.1 µM [inhibitor, partial curve, poor fit]. In the case of `CCN1CCC2(CC1)C(C#N)=C(N)Oc1c2sc2nc(C)cc(C)c12`, the Potency is reported as inconclusive: 39.8 µM [inhibitor, partial curve, poor fit]. In the case of `COc1ccc(-n2c(N)c(C(=O)NCC3CCCO3)c3nc4ccccc4nc32)c(OC)c1` (configuration not stated), the Potency is reported as “inactive”. With `Cc1nc2c(O)c3c(c(O)c2nc1C)C1C=CC3CC1` the Potency was “inactive”. For `Cn1c2ccccc2c2ccc3c(c21)C(=O)C=CC3=O`, the Potency was inconclusive: 25.1 µM [inhibitor, partial curve]. For `CCc1ccc(N2CSC3=C(C#N)C(c4cccs4)CC(=O)N3C2)cc1` (configuration not stated), the Potency was inconclusive: 31.6 µM [inhibitor, partial curve]. In the case of `Cc1ccc2c(c1)-c1nc3ccccc3cc1C2=NC1CCCCC1`, the Potency is reported as inconclusive: 56.2 µM [inhibitor, partial curve, poor fit]. In the case of `CCN(CC)CCN(C(=O)c1ccc2c(c1)CCCC2)c1nc2ccc(OC)cc2s1`, the Potency is reported as inconclusive: 44.7 µM [inhibitor, partial curve]. For `COc1ccc(C)cc1NC(=O)C(OC(=O)c1ccc([N+](=O)[O-])o1)c1ccccc1` (configuration not stated), the Potency was inconclusive: 39.8 µM [inhibitor, partial curve]. For `O=C(Nc1ccc2c(c1)OCCO2)c1ccccc1Cl`, the Potency was “inactive”. In the case of `CCOC(=O)c1c(C)[nH]c(C)c1C(=O)COC(=O)c1ccc(Cl)nc1`, the Potency is reported as inconclusive: 56.2 µM [inhibitor, partial curve, poor fit]. For `c1ccc(Nc2ncnc3sccc23)cc1`, the Potency was inconclusive: 0.562 µM [inhibitor, full curve, poor fit]. With `COc1ccc2c(c1)CC/C(=C\C=C\c1ccccc1)C2=O` the Potency was inconclusive: 35.5 µM [inhibitor, partial curve]. In the case of `Cc1ccc(C)c(OCCn2cc(/C=C(\C#N)C(=O)NCC3CCCO3)c3ccccc32)c1` (configuration not stated), the Potency is reported as inconclusive: 39.8 µM [inhibitor, partial curve, poor fit]. `CC(=O)N1CCN(C(=O)C(Cc2ccccc2)NC(=O)c2ccccc2)CC1` (configuration not stated) was tested, and the Potency was “inactive”. With `COc1cc2c(cc1NC(=O)Nc1cccc(C)c1)oc1ccccc12` the Potency was inconclusive: 44.7 µM [inhibitor, partial curve]. `Oc1ccc(Br)cc1-c1nc2cnccn2c1NC1CCCC1` was tested, and the Potency was inconclusive: 39.8 µM [inhibitor, partial curve, poor fit]. With `CCOc1ccc(/C=N/NC(=S)NC2CC3CC2C2C=CCC32)cc1` (configuration not stated) the Potency was inconclusive: 44.7 µM [inhibitor, partial curve, poor fit]. In the case of `COc1ccccc1N1CCN(S(=O)(=O)CCNC(=O)Cc2ccc(Cl)cc2)CC1`, the Potency is reported as “inactive”. With `COc1ccc2c3c([nH]c2c1)C1CC2C(CC(O)C(OC)C2CO)CN1CC3` (configuration not stated) the Potency was inconclusive: 5.01 µM [inhibitor, partial curve]. With `CC1CCc2sc(C(=O)Nc3ccc(N4CCOCC4)cc3)cc2C1` (configuration not stated) the Potency was “inactive”. In the case of `O=C(Nc1cnn(Cc2ccc(Cl)cc2Cl)c1)c1noc2c1CCc1ccccc1-2`, the Potency is reported as inconclusive: 5.62 µM [inhibitor, partial curve]. `CCCNC1=C(N(C(C)=O)c2cccc(F)c2)C(=O)c2ccccc2C1=O` was tested, and the Potency was inconclusive: 4.47 µM [inhibitor, full curve]. In the case of `CSc1nc2ncncc2[nH]1`, the Potency is reported as inconclusive: 50.1 µM [inhibitor, partial curve, poor fit]. In the case of `Nc1nc(Nc2ccccc2)nc2c1ncn2[C@@H]1O[C@H](CO)[C@@H](O)[C@H]1O`, the Potency is reported as inconclusive: 0.501 µM [inhibitor, full curve]. `COc1ccc(CC(=O)Nc2cc(-c3cn4cccnc4n3)ccc2OC)cc1` was tested, and the Potency was “inactive”. For `COCCn1c(SCC(=O)NC2CCCCC2C)nnc1-c1ccncc1` (configuration not stated), the Potency was inconclusive: 0.251 µM [inhibitor, full curve, poor fit]. In the case of `Cc1ccc(C)c(N2N=C(C(=O)Nc3cccnc3)CCC2=O)c1`, the Potency is reported as “inactive”. For `CCOc1ccc(NC(=O)N(C)CCc2c(C)nn(C)c2C)cc1`, the Potency was inconclusive: 44.7 µM [inhibitor, partial curve, poor fit]. `Cc1ccc(NC2C(=O)NC(=O)NC2=O)cc1` was tested, and the Potency was inconclusive: 22.4 µM [inhibitor, partial curve]. In the case of `Cc1ccc([C@H]2C[C@H](O)[C@@H](n3cc(COC(=O)c4ccccc4)nn3)CN2CC2CCCCC2)cc1`, the activity change, negative = inhibition is reported as inconclusive: -31.4% [inhibitor]. With `O=C(CSCC(=O)NCc1ccco1)NCc1ccco1` the Potency was inconclusive: 0.562 µM [inhibitor, full curve, poor fit]. In the case of `COc1ccc(/C=C/C(=O)Nc2ccc(-c3nnc4n3CCCCC4)cc2)c(OC)c1`, the Potency is reported as “inactive”. For `COc1ccc(S(=O)(=O)Nc2ccc(O)c3ccccc23)cc1`, the Potency was inconclusive: 35.5 µM [inhibitor, partial curve]. In the case of `CCCCNC(=O)c1cnc2sc(N3CCCCCC3)nn2c1=O`, the Potency is reported as inconclusive: 0.0282 µM [inhibitor, full curve, poor fit]. With `COc1ccc(C)cc1NC(=O)Nc1ccccc1OCc1cc(=O)n2ccccc2n1` the Potency was inconclusive: 6.31 µM [inhibitor, full curve, poor fit]. For `CCOc1ccc2nc(C)cc(Nc3cccc([N+](=O)[O-])c3)c2c1`, the Potency was inconclusive: 50.1 µM [inhibitor, partial curve, poor fit]. In the case of `COCCn1c(-c2ccc(OC)cc2)nc2oc3cc(OC)ccc3c(=O)c2c1=O`, the Potency is reported as inconclusive: 31.6 µM [inhibitor, single point]. `O=c1[nH]c(COc2ccc(Br)cc2Cl)nc2ccccc12` was tested, and the Potency was “inactive”. `COc1ccc(F)cc1S(=O)(=O)n1nnc2ccccc21` was tested, and the Potency was inconclusive: 4.47 µM [inhibitor, partial curve]. In the case of `CCCCCCc1cc2cc(-c3nnc(-c4ccccc4O)o3)c(=O)oc2cc1O`, the Potency is reported as active: 8.91 µM. With `Cc1ccc(CN2CCS(=O)(=O)CC2)cc1` the Potency was “inactive”. `O=C(O)c1ccc(NC2=C(N3CCOCC3)C(=O)c3ccccc3C2=O)cc1` was tested, and the Potency was active: 28.2 µM. With `COc1ccc(-n2cc(C(=O)OCc3ccc(Cl)cc3)c3ccccc3c2=O)cc1` the Potency was “inactive”. For `COC(=O)c1ccc(Cl)cc1NC(=O)N(Cc1ccc(OC)cc1)C1CCN(C(C)=O)CC1`, the Potency was “inactive”. For `CC(C)(C)n1nc2c(c1NC(=O)c1ccc(S(=O)(=O)N3CCCC3)cc1)CSC2`, the Potency was inconclusive: 50.1 µM [inhibitor, partial curve, poor fit]. With `CN1c2ccccc2C(C)(C)C12C=Nc1c(cc(N3CCOCC3)c3ccccc13)O2` (configuration not stated) the Potency was inconclusive: 5.62 µM [inhibitor, full curve]. For `COc1cc(C(=O)N(Cc2cccnc2)c2nc3cc(C)c(C)cc3s2)cc(OC)c1OC`, the Potency was inconclusive: 100 µM [inhibitor, partial curve]. With `Cc1ccsc1CN(C(=O)COc1cccc(C)c1C)C1CCS(=O)(=O)C1` (configuration not stated) the Potency was inconclusive: 89.1 µM [inhibitor, partial curve, poor fit]. `COC(=O)CCCC1=CC2=CC(=O)C(C)(OC(=O)c3cccs3)C(=O)C2=CN1CCc1ccccn1` (configuration not stated) was tested, and the Potency was inconclusive: 17.8 µM [inhibitor, partial curve]. For `CC(=O)C1=C(C)NC2(O)c3ccccc3C(=O)C12O` (configuration not stated), the Potency was “inactive”. For `O=C(O)c1cc(N=Nc2c(O)ccc3ccccc23)cc(C(=O)O)c1`, the Potency was inconclusive: 11.2 µM [inhibitor, partial curve]. `Cc1cc2cc3c(cc2nc1SCC(=O)OC(C)C)OCO3` was tested, and the Potency was inconclusive: 2.51 µM [inhibitor, full curve, poor fit]. With `CS(=O)(=O)c1ccc(-c2sc3ccccc3c2C#CCCO)cc1` the Potency was inconclusive: 6.31 µM [inhibitor, full curve, poor fit]. With `O=C(CCCOc1ccccc1)Nc1cccc(S(=O)(=O)N2CCOCC2)c1` the Potency was inconclusive: 7.94 µM [inhibitor, full curve, poor fit]. For `COc1ccc2c(c1)-c1nc(/N=C/c3ccccc3O)sc1CC2`, the Potency was “inactive”. In the case of `COC(=O)C1=C(O)/C(=C\c2ccc(CNS(=O)(=O)c3ccc(Cl)cc3)o2)N=C1C`, the Potency is reported as “inactive”. With `c1coc(-c2nc3c([nH]2)CCc2nonc2-3)c1` the Potency was inconclusive: 2 µM [inhibitor, full curve, poor fit]. With `CCn1c(SCc2nc3ccccc3c(=O)[nH]2)nc2ccccc21` the Potency was inconclusive: 7.08 µM [inhibitor, partial curve, poor fit]. For `Clc1ccccc1CN1CCc2nc(N3CCN(c4ncccn4)CC3)ncc2C1`, the Potency was inconclusive: 39.8 µM [inhibitor, partial curve, poor fit]. In the case of `O=C(Nc1ccccc1F)c1ccc2c(c1)CCN2S(=O)(=O)c1ccccc1`, the Potency is reported as inconclusive: 6.31 µM [inhibitor, full curve, poor fit].
